Measured values as given in patent US20080181886A1, “Polypeptides That Bind Baff And/Or April” (Genentech, Inc., priority 2004, published 2008).
No constants are given. Whether binding was seen depends on the method and setting. Some results given as binding are weak or reduced against the parent protein; the word gives no strength.

Chains of the proteins cited; added tags and fusions are not shown. Lines headed by an entry give the natural chain unless they say otherwise; changes in a name come on top. Residues count along the entry.
UniProt Q9Y275: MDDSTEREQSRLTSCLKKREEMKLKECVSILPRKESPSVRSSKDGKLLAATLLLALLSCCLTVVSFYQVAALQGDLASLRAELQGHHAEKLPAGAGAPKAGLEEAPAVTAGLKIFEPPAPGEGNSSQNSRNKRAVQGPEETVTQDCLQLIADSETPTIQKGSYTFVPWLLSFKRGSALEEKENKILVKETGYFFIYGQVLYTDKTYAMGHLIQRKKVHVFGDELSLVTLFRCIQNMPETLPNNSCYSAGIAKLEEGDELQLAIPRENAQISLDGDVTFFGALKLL
UniProt Q9D777, residues 104-241: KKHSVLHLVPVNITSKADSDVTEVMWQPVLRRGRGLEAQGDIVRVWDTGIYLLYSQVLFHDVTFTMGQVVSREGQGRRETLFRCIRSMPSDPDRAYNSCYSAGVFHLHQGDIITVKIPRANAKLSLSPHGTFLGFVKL

Assays:
human BAFF (human) [1] = target: human BAFF (human) (UniProt Q9Y275); test: SPR competition, FIG. 3B
human BAFF (human) [2] = target: human BAFF (human) (UniProt Q9Y275); test: SPR competition
TRX-APRIL (mouse) = TRX-APRIL (mouse) (UniProt Q9D777); test: SPR competition
human BAFF (human) [3] = target: human BAFF (human) (UniProt Q9Y275); test: SPR competition, FIG. 8B

Measured: binding

B1: TACI_d1 (first CRD of TACI, residues 32-67) (receptor)
chain: RSCPEEQYWDPLLGTCMSCKTICNHQSQRTCAAFCR
binds: human BAFF (human) [1] | human BAFF (human) [2] | TRX-APRIL (mouse) | human BAFF (human) [3]

B2: hTACI CRD1 LS (human TACI CRD1 R32-R67 with NHQSQRT replaced by GQHPKQ of CRD2) (receptor)
chain: RSCPEEQYWDPLLGTCMSCKTICGQHPKQCAAFCR
binds: human BAFF (human) [2] | TRX-APRIL (mouse)
